Reference: paper PMC4916389

Sequences of proteins named here, by UniProt entry; tags and fusion partners are left off. A change or cut given only in a name is not applied to a line headed by its entry.
UniProt F7W245: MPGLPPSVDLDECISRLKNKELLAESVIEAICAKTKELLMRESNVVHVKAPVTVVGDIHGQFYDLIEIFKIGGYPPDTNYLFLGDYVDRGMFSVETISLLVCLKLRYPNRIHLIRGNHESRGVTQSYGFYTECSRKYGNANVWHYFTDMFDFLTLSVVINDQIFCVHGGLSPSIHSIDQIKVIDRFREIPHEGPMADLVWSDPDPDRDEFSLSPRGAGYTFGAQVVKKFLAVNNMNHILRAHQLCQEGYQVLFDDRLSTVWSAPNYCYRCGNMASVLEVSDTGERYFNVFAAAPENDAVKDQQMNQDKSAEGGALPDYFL

Biological target: NTAP-PP2Ac1 (catalytic subunit 1 of protein phosphatase 2A with an N-terminal TAP tag) (Sordaria macrospora) (UniProt F7W245)
Assay: affinity purification with mass spectrometry; tandem affinity purification (TAP) with NTAP-PP2Ac1 as bait from protein extract of the S. macrospora Δpp2Ac1::ntap-pp2Ac1 strain; TEV cleavage with AcTEV; tryptic digestion and MudPIT MS; four replicates; unspecific background and ribosomal proteins subtracted

B1: PRO22 (STRIP1/2 homolog), endogenous (protein, UniProt F7VWV9 1-1120)
chain: MTIMNALWSKATSSSGDSAQKSAKPTNDAVNTTSEALPDLSERPNAPALPARPALQRNQPSAPPPAAPSNPPPPVPSGSGSGNANNASAQPQDSLSLAQLRRIVAEFPKSEPIAYDYVYSDMGPIEEEVDEWFFYDFWQYVRLNNANHAFDSAWVKMYGEDETWESVDDDGREKFVRNEVEQLQVSSDKTARVEAIGTLLYIVLGRWTATVKKANLPNLADHKVKSAATKEQLDAMKAGVKLLAKYGGLPPMWDALRKAFELFWADDGDASQRVQANNEELMELMHLMTILYISLQTTMDDVEDMAVARKELLALNPNLVHFMLHATAKLRWDDRNILPQAQVGSATFGIPVAANQHRMLMSSQVFLLFWKSLLLVFGGSKHIAEAKKATAETLSDVKDKEIITASPLDYHVFRQEITSKYPSYIPPQCAIPLEAEQTSILPPLPNHPTRNNGQNGILPGPPNQSASASILHQPVHIATPAPSPPPSPGVGGKGGKKQNYQTNQNFPFMYPPLDATSNSAGGKGGAGLQDLLVGRKWEGSDVPASIIEAGELFSTRTRMTRATRQLWEERERFLKFERGWEGADEDLIDELDLSELTLEEKEELGLLKESEKKKEKHGHEIDLGPRPVDDDIKRRLEAVEEFYKEALPHLQSLVIVLLKAIVAIASSFVQPPPGQQNPGPQNNGRAGGGPPQGRGQNNGNNASNDPPSPSDDNVDEARSREIAAKAVTGIMILLLKWLKLSHILKFEYFTQLLLDSNYLPLVLKLFALHDVQQVVESKTDRIEHSFFYFCASRSGVIPPQGLINPTATDFEDVDVSEDEAAPPAIKRNRSPPGAEKGGPPDASSQPTQQQQQQQRFENSDVQSRPEVDELGYPVNPLPKEPITDFSRRNFFSLINYLRVMQKICKHKAHRNLLLVHYKSSNILRKSLKVPQQELRLYTLKLFKNQVPYCGRKWRQSNMRVITAIYLHCRPELRDEWLSGSDVDAEVEEALPLEQALRSLTHWFNVQRYPERMGAEVTAAMREERDFFTRELEKSDWMGWEGIMAGGGMGMDGGGGGPEPMMGMQGMQGMPGMPGMGMGMNMGMPGMGIGGMPGMGGMAGIEYAAAAAAAQTEHENSMGWS
binding: binds

B2: GTPase-activating protein SAC7 (protein, UniProt F7W308 1-1105)
chain: MTSAATAAAPVAPAHVPPPPPPTSSQLQSHTQTQAQTQAQAQVQAHNQVAQAQAQAQAQAYSHSHTQSLSQPHHRAYNPYNAFAHHPQPPPPSKRDLKSWWKGFKLPSKHQEAHGIATPFTRSKPYRSTSLFAEDMEGCLSDLPEAVALLQEIVAQEVLIAARADARSQPTSVSLNRMSTGALFYEKPLQLETLARFLNWRLSRRCTGEDGSWPVQDPAKTKSVVPEPPKGIFGVPLRDSIKYANVAISLVDENGKSYIYGYVPIVVAKCGVFLKEKATDVEGIFRLSGSEKRIKELKTIFDSPDRYGKGLVWDGYTVHDAANVLRRYLNDLPEPVVPLELYEEFRKPLKGATRQAAGDTDGPQFVENFDMDAAIIRYQQLITELPPLNRQLMLYILDLLAVFAAKSDINRMNSQNLAAIFQPGMLSHPAHAMAPEEYRLNQCVIIFLIENQDHFLIGMQGTAADERTVQEVQKGTPTVNAPGTPKNYQSGVNRTASNASAGAESVSKEGMIRRNKSTSSRRSLASNGAPSPGSPALTSTPTGGLGRSNTLPSKRSPRVPPGRFAHRHDVSNSPVGPLTPVHPPSVPEVTPPTPTVLPPAPAVVYEVVTPPEESSVPSITTSTAPSSLLPSQSVQAARSQEKLLDPSAEAAAPSKERRMPNIPSIFQRAPTGENELRQPNKLRKKMPGAGGHYSAHSSTISLPRSAAASPAVEATNPMEMVPPLPGNLDAVVSSGQTAPSPSDSTPRASQAPSAPSTMLNPNNAPETQLKLRESPPTSVTSYNDMSDPDQVETQTTASFASPEVASPDRDKRRRWRLSRKKEDSISLHSPPNFSQPPISPRMLGSNSQAEGSNSSVGSSGYFHNQRPRASMSGDVSDAGMMSSLDDRSMMSDGTREGRDRDRDRDWDKSSEYRKSNIADWLKNKYREHRETAEQRRNKSPPAHDGRSASIGERIRKSIDTKREMNNGSERGYSDEHIPMPPLPPREPGPGNSQSSIQSSPQSFQQTQPQPAQAQQPPALYQTEQSVEVQLVAQTLPAQPSVQPEQPQLQHFQPQQVSVHQSQPQLSPEPLPQIPEQPTEAPVPAQAPIPTQAPIPTPSRHMDLDE
binding: binds

B3: putative methyltransferase SMAC_09155 (protein, UniProt F7WBD3 1-375)
chain: MSSPFKKAQSPASEPKSPKGKEKSPTPAPTSPVGDESLEPVGLLPGAHWGQQVQEMDEDNDSTLGSDTESSTASISSSILHYRSVLGRTYHSDSVTDTEYWGPNDAKANELLDIMHATLVMLFDGKLYTSPLNEKEIKNAIDIGTGTGVWAIDFADDHPNCNVVGTDISPIQPTWLPPNACFEINDATKQWTYQENYFDFIHLRWLTGVIQDWNALYKEAYRCAKPGAWIEHLDVDAQFYCFDGTMPEKSAMAQWGPIWKEVGRKTGLEFNVVSSNTMEKGLKNAGFTNITSEDYYVPASSWSDDEKMKQLGIYNSVAMTHDVEGFLVYFMSNYLGWTSKDITNYAATIRREFREAKIHSNGRWRIVRAQKPLDA
binding: binds

B4: putative methyltransferase SMAC_06301 (protein, UniProt F7W6E4 1-385)
chain: MSSEGKAQLPTPEAASPKGEAKSPTPGPASPVQATSPTPGPAAPGTAAPGLLSGAHWADVGLPEEGAENDWDSTLGNDTESSTASISSSILKYRTINGRTYHSDSVTDGEYWGPNDEKQNEMLDISHHVMTLLLDGKLYTAPITDNPENIIDIGTGTGLWAIDMADEFPDCNVIGTDLSPNQPTWVPPNLRFEINDASKEWTYQPNFFDFIHMRWLTGAIRDWTAVYKEAYRCLKPGGWIEHMDSSGDALSHDNSLADDSALKQWGKIWQEGGKRLGNPVDLLPANLQEIGMKEAGFVNITKKDYLIPASPWPKDEKQKELGLYFSTTWTADLEGVCQFMFGNVMGWEKEEISAYFTHLKSELKDTSIHASVIYRVVYAQKPLDA
binding: binds

B5: two A phosphatase-associated protein 42 (TAP42), endogenous (protein, UniProt F7VNJ5 1-406)
chain: MSDQEPRSLKATFAAAEEKRLSLENSPPNPSDYADTLSAAIKLYQSCLSQISILSLFSSNEGLEDLNTNDLPYLLVNYHLAELIQKIPSPTPSPAERKRLLDQAREAYERYLHLLDSYEGLLNPTYKKRLERYTDSPTEFTVAGASASDPNARRNAKIANFKAEKELRQKLAYLRQRPEYAAADLELDDDESTTDQTGGGGNTGDEEVVRSVHLAHLDLCTHLTFQALESLNREMEVLNMAPREPASLPSAQLRGNNQAGAGNDMGAQDDLRRRQGGADPRDYSDRLDMPLSRLQGILGGSGPILSKEGRPLRPFTLTGTRQEIAKGVFRPSHNLPTMSIDEYLEEERRRGGIIEGGGEASWKAGEKNPDDEDDHEKLDAETMKARAWDEFVEANPKGAGNTLNRG
binding: binds

B6: protein phosphatase two A phosphatase activator 1 (PTPA1), endogenous (protein, UniProt F7VW68 1-658)
chain: MDTKFKPPGPPAGSSSSSPTTLPALPKLEILNPSSTLPSHRFLRPAKRINEGLDVSQFLTSKAYRDIGVWILQLNHALVPRVIKKSPAAATASASTSSEPKTESTEEDKQPKAEEEPPKDALTAKLQSLHKKKDEQRPREEIRTFPLPKGDEVKEEEPESIQKLQRLLKKVEAIIDEAPPNPGPRRFGNVSFRTWHKILEQRAEGLLREYLPGGVLRWETGGGGEKKEGVKKKEEEEGWEEEGADTETEGDGSADSDKKTNEQKTQEVVGPLEELKAYFLGGFGSAQRLDYGTGHELSFMMFLGGLWKLGGFEGEENDEDGEVERRIVLGVVEPYLRVIRRLILTYTLEPAGSHGVWGLDDHSFIPYIFGSAQYTRPISSPNEPTPLEGSVPNAPKPGDITKPTAVERYRTENMYFSAIGFINDVKKGPFWEHSPILFDVSGIKDGWGKINKGMIKMFNAEVLSKFPVVQHFPFGSLFRWEQDPQAGTPVQSVHMQNQPVASSAAAAAVTGGVGIPTERPSGTAAPWAQTQAPGVASGGGPGTTAPWAQKPSSAPGPGGITGTAAPWARAPTQAPTQAPGAGAGMAPPMTAAPWARSSGAGAGAEVGPSAANRFTPYKPTGVPGGAPDTGPAPPESFRSGTPGTASNQFAVTKAPWAK
binding: binds

B7: DEF (SMAC_00817), protein probably involved in RNA polymerase II degradation (protein, UniProt F7VN58 1-988)
chain: MSEVQSRPVAARGRGSGRGGRGGLSTRGGRSATRTNGDSAESSSLPSLEDEGEIGQLKKQYGSKVAIIKEMFPDWSDVDVLFALNETDGDESLAVTRIAEGTISQWGEVTKPKKVSKPKTKTDTFTSTPVDSFPGSTRPARGGRVESGRGRGRATERGGRGGGRGKPLNATINGHKTTESEKLSVPTDEANVWGTPKPAEEASGWPEESSPATETPAAAPAPVALKPVGPAQKTWASMLRQSVPKPAPKPKEVAPPKPAEPVIEPLPPVAEPTPVEPEVQAEPEAAEPEVPTPVEEPTPEPVKKEATPPPPPAVPALPIVPIEPALPAIPVVPEVALKPSKDQLTETNLEQVADDSHPPQTETAASEAADSWDPRAQAPSVTATPNSASQQQHQTSRAPGSGFATTASKATDRTSTRTPTYARRILDQQEPVRMPGNRDQVDRAAVQFGAFSLNEEDDIDGDREEPETRPQPPQDSPVTQPRASLPPVQPAPVPETFAAQKPAASLPPTGPASTTTTAPPTAPTQPSAAAAVSQGAYYLPISSLVDDSLKTPAEAATQPPTAPATQQFGRFGQPAPQEPASFGASKPFDAFGQQPGAVAAQTQYETGFPGQGQAAQTQNQQQPVGAFSSAPSDYSQYYTADQSRYNYYGQNNFGQQQGAQGQQDGLSQPQRGFGYNAPQADNLSQYPQSGAQHTQTRFGSGSEMAGTPTPNQAGTQAQTAQTTQAQTHGQQQPHDQYGPYGSHPYYSNPYYSAYMNYNGYNQGAYGAPYGKGNLGYQPNQYGMSPQAPHGYASSPAGFGQSTLHRETGVGAAGLNDYGRTASGQTAQQQGLGGSGFGGMHDAFGRGGSSYQSQAGQSFNAPGTQPGAGPSASDDLKPFGDSKAASGPSPALGGAARPGSATNNAPSQSGLPPPQSNQQSGLGGMGSYGYPNHLQGHGLHNNQQTGTGYGMGATGSQGHQNTYGSYGGQGFGGGYYGNPPRGGWGNNYH
binding: binds

B8: PUB1 (SMAC_02147), putative poly(A) RNA binding protein (protein, UniProt F7W137 1-495)
chain: MADAGPPPTTGQLPPPPQPNAGAPGYENGQNNNSNPAHMPPPPLHIPQNTNPIPTAITSPMGGNGDTSGIMSPTSAGNPFGRRAAPEPNKRALYVGGLDPRVTEDVLRQIFETTGHVQNVKIIPDKNVGKPGSPEQPHDAQQQKGYNYGFVEYDDPGAAERAMQTLNGRRVHQSEIRVNWAYQSNNQNKEDTSGHFHIFVGDLSNEVNDEVLLQAFSAFGSVSEARVMWDMKTGRSRGYGFVAFRDRPDAEKALSSMDGEWLGSRAIRCNWANQKGQPSIAQQQAMQQMGLTPTTPYGHHHFPTHGVHSYDMIVAQTPAWQTTCYVGNLTPYTTQNDLVPLFQNFGYVVESRFQADRGFAFIKMDTHENAAMAICQLNGYQVNGRPLKCSWGKDKTPNPQQFDPNQPYSPQSAQTPGYPGTPSTYFNQYGNSYPGQQANYNGPQAQSPAGYGSQMGYNGPPSAGGYGRGQPGPNAQWNQPSPAQNFGNGFGGYQG
binding: binds

These are yes or no findings as the source states them, for the method shown. In cells and extracts the contact can be indirect. These calls come from enrichment with a bait or labelling near it, and not all partners need be listed.
